# The other results are listed elsewhere or left out.
# Sequences of proteins named here, by UniProt entry; tags and fusion partners are left off. A change or cut given only in a name is not applied to a line headed by its entry.
# UniProt Q7Z6J9: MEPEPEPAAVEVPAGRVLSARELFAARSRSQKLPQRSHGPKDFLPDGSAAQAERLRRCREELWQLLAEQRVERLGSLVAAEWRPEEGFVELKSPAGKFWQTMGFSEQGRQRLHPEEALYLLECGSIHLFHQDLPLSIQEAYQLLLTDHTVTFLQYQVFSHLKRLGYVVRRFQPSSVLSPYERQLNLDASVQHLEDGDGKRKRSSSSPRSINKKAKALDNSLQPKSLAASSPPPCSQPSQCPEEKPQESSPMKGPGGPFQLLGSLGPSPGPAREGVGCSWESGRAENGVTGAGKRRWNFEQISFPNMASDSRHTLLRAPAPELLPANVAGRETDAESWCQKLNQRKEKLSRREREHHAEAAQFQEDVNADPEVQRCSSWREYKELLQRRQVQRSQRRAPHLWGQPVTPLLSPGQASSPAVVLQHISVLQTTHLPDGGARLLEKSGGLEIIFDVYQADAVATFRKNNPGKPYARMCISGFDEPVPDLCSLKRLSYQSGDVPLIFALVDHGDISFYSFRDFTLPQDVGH
# UniProt Q8IZ69: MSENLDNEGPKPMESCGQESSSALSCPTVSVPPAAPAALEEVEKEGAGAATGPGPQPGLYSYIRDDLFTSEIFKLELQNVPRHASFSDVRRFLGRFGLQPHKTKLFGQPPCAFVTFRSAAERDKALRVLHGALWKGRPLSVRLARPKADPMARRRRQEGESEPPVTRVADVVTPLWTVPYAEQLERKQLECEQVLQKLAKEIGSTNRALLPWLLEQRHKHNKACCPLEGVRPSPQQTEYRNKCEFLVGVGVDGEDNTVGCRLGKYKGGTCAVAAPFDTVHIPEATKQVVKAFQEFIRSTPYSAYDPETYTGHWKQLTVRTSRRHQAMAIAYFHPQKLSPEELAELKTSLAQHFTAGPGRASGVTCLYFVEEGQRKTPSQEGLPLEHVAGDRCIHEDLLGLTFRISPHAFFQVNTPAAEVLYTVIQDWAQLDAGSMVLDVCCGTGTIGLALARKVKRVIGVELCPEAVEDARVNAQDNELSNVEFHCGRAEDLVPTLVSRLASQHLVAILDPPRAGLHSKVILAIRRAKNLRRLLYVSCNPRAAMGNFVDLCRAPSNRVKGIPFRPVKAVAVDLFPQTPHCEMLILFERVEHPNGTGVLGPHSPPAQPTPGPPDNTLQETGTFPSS
# UniProt Q13263: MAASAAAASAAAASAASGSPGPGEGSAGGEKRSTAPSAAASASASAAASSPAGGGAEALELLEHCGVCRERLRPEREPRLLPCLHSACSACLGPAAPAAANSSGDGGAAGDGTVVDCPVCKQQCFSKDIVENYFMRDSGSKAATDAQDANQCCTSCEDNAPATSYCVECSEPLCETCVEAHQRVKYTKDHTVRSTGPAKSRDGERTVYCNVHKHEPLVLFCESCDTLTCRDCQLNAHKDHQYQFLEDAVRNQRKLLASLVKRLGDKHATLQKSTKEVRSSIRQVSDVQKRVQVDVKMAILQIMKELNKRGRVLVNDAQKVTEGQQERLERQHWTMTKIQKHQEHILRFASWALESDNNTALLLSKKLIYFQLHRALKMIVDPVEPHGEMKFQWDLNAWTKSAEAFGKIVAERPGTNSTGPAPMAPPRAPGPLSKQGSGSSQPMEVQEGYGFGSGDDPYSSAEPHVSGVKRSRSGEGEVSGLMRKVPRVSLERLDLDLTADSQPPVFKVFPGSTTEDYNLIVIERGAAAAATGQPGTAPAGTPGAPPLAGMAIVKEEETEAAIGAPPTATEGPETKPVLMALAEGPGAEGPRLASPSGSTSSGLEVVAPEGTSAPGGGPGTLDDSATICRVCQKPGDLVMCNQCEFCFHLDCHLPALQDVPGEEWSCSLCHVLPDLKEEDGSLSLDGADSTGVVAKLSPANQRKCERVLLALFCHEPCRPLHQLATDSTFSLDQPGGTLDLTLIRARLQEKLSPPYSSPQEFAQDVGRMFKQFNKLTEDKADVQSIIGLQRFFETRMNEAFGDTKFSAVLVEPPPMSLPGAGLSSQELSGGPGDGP
# UniProt O75865, whole entry, looked up: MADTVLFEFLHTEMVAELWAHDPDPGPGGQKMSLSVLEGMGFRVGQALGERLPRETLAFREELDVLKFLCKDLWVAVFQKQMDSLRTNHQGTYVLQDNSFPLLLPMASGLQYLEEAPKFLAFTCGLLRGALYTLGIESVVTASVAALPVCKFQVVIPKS
# UniProt Q13049: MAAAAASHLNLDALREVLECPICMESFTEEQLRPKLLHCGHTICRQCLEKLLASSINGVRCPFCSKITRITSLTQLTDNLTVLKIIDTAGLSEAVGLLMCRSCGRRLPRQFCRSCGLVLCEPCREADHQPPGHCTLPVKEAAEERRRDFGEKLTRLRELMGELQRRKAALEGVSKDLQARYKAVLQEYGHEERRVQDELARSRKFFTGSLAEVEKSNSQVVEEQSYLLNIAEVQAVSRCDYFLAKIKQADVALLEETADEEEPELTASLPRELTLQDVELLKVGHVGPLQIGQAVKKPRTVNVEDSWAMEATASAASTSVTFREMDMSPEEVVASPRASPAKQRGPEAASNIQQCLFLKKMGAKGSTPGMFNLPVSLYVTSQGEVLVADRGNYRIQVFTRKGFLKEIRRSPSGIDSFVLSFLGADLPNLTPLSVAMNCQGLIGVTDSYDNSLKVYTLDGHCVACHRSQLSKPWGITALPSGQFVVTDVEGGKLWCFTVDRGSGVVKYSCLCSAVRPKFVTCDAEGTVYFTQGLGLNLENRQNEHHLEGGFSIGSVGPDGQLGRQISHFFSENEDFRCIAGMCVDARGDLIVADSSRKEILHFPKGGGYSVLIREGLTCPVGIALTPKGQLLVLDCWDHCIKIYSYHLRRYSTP
# UniProt Q13630: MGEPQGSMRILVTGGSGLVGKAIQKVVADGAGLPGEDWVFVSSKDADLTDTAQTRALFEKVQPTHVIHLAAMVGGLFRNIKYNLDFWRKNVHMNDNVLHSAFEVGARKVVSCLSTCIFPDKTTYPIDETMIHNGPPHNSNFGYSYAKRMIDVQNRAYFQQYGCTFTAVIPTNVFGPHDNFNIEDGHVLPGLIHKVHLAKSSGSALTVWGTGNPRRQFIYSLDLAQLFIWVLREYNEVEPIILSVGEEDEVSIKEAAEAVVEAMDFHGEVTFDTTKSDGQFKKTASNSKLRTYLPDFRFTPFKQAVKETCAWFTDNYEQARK
# UniProt Q14166: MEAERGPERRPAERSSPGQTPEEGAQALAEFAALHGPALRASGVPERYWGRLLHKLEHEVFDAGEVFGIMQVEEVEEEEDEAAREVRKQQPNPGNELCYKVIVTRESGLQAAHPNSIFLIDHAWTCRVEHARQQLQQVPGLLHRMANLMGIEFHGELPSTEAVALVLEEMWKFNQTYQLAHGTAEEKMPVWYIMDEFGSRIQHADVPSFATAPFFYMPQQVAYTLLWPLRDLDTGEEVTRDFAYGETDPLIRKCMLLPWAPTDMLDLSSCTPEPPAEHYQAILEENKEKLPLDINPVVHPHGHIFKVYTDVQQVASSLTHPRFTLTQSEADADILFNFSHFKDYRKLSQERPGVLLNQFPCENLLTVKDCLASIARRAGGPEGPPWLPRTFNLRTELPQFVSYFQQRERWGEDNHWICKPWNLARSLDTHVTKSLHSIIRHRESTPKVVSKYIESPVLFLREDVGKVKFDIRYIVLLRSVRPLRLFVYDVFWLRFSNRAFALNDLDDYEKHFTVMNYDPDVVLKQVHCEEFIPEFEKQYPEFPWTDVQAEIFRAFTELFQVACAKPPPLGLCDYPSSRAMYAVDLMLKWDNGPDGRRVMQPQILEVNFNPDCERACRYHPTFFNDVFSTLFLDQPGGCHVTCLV
# UniProt Q9Y2L5: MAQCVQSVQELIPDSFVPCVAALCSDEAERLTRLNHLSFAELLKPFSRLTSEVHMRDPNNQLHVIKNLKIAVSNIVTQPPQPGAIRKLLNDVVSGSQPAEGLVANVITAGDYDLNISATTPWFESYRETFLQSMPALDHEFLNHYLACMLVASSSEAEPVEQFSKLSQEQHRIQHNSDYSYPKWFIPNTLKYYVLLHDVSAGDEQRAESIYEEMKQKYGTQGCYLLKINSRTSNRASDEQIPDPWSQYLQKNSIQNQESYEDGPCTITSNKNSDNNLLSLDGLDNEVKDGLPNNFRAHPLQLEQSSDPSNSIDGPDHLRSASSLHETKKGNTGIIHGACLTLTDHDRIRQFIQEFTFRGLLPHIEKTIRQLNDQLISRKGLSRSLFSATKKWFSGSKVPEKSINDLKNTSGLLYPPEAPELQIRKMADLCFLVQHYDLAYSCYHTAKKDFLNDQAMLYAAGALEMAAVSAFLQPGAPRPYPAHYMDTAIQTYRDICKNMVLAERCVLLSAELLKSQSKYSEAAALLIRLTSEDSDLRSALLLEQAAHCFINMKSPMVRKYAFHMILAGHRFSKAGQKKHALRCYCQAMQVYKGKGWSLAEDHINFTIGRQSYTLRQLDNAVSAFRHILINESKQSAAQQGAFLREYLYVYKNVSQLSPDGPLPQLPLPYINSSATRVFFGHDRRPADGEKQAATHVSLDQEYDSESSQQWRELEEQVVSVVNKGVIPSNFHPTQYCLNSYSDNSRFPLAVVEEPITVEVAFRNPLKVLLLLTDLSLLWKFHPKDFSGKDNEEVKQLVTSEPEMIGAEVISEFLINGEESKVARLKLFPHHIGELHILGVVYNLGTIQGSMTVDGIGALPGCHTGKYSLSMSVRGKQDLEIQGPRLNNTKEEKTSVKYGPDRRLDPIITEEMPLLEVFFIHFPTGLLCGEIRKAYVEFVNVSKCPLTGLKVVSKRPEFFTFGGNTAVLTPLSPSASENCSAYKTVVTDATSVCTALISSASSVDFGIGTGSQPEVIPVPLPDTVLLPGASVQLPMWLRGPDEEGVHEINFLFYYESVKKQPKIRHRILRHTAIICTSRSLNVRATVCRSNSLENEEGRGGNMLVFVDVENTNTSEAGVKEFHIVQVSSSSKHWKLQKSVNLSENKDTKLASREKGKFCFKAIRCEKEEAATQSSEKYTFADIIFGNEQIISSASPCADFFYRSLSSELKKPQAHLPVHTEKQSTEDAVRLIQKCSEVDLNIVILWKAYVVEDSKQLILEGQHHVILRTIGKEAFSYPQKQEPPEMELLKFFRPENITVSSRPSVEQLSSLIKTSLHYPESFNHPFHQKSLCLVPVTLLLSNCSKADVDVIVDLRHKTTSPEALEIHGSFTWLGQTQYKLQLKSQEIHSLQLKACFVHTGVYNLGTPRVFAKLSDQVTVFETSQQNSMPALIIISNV
# UniProt Q9BSV6: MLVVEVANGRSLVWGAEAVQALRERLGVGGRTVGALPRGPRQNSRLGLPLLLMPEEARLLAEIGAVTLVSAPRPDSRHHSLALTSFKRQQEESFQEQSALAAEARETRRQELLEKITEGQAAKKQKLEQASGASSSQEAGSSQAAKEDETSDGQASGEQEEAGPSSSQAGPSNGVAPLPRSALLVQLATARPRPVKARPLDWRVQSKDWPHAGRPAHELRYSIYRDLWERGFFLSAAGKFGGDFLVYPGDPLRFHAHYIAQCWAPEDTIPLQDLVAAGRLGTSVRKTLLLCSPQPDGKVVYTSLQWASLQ
# UniProt P36406: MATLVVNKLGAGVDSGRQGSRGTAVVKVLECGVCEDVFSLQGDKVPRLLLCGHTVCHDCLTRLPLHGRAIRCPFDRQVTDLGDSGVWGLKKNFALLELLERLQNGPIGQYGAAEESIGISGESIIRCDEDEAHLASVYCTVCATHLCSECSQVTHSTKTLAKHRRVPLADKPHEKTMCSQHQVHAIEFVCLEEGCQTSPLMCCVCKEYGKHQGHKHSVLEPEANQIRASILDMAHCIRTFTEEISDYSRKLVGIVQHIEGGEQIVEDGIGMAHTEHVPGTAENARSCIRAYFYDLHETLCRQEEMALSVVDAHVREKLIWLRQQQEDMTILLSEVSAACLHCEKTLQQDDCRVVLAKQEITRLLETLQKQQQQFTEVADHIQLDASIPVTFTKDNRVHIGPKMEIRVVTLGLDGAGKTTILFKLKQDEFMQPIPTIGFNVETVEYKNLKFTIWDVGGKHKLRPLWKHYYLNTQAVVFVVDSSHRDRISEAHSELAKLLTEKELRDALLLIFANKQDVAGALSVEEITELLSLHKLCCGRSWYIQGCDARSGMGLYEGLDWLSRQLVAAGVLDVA
# UniProt Q8WWH5: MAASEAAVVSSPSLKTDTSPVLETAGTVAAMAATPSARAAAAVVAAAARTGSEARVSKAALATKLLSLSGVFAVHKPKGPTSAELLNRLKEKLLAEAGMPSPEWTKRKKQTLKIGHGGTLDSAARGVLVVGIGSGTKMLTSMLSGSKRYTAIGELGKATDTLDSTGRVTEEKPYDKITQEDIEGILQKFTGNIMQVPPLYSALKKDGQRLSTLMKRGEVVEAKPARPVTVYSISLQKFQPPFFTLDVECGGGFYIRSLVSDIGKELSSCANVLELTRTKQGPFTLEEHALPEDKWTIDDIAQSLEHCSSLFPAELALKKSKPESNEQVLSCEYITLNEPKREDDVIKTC
# UniProt Q86SZ2: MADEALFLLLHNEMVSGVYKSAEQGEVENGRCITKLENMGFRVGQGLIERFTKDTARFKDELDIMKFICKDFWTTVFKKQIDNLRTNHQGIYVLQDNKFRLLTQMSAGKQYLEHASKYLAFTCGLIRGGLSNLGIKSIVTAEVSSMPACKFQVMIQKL
# Compound: CC(=O)c1cnc2ccc(-c3cc(Cl)c(O)c(Cl)c3)nc2c1N[C@H]1CC[C@H](CN(C)C)CC1
# Assay: log2 fold change, soluble protein after heating vs DMSO (PISA); higher = thermal stabilisation; K562 lysate, 10 uM; active = over 0.2 and 3.5 SD of the protein, either way, in both replicates (recomputed)
# Outline: (§1)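 Quantification was by TMTpro 16plex LC-MS/MS with equalised channel sums, applied to the supernatant after 21,000xg for 90 min. Samples were crude K562 extract at 1 mg/mL protein in PBS pH 7.4 with 1 mM MgCl2, treated with 10 μM compound for 30 min, heated for 3 min across 48°C-58°C, pooled and brought to 0.5% NP-40 at 4°C. Values are log-two fold changes in thermal stability relative to solvent controls, from duplicates.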
row,Target,log2 fold change
1,TRAP1 (UniProt Q12931),inactive: 0.003
2,TTI1 (UniProt O43156),inactive: 0.014
3,TRNT1 (UniProt Q96Q11),inactive: -0.003
4,TSEN54 (UniProt Q7Z6J9),inactive: -0.02
5,TSN (UniProt Q15631),inactive: -0.002
6,TRMT2A (UniProt Q8IZ69),inactive: 0.005
7,TTC33 (UniProt Q6PID6),inactive: -0.039
8,TRMU (UniProt O75648),inactive: -0.022
9,TSC22D1 (UniProt Q15714),inactive: -0.062
10,TTC19 (UniProt Q6DKK2),inactive: -0.024
11,TRIM11 (UniProt Q96F44),inactive: 0.05
12,TRIP10 (UniProt Q15642),inactive: -0.018
13,TRIM24 (UniProt O15164),inactive: 0.056
14,TRIM28 (UniProt Q13263),inactive: 0.002
15,TRMT1 (UniProt Q9NXH9),inactive: 0.018
16,TRIM44 (UniProt Q96DX7),inactive: 0.124
17,TRAPPC6A isoform 2 (UniProt O75865),inactive: -0.011

row,Target,log2 fold change
1,TRIP10 isoform 2 (UniProt Q15642),inactive: 0.033
2,TRIM32 (UniProt Q13049),inactive: -0.01
3,TSG101 (UniProt Q99816),inactive: -0.001
4,TSTA3 (UniProt Q13630),inactive: 0
5,TRIP6 (UniProt Q15654),inactive: 0.02
6,TTLL12 (UniProt Q14166),inactive: 0.003
7,TRAPPC8 (UniProt Q9Y2L5),inactive: -0.019
8,TRAF4 (UniProt Q9BUZ4),inactive: -0.085
9,TSEN34 (UniProt Q9BSV6),inactive: 0.009
10,TRAPPC3 (UniProt O43617),inactive: 0.025
11,TRIM23 (UniProt P36406),inactive: 0.061
12,TRAPPC9 isoform 2 (UniProt Q96Q05),inactive: 0.019
13,TRUB1 (UniProt Q8WWH5),inactive: -0.025
14,TRIP4 (UniProt Q15650),inactive: 0.021
15,TRAFD1 (UniProt O14545),inactive: -0.032
16,TRAPPC6B (UniProt Q86SZ2),inactive: -0.031

# Compound: CC(C)(C)Cn1c(N)nc2ccc(-c3[nH]c(C(C)(C)C)nc3-c3ccc(F)cc3)nc21 [ralimetinib]
# Assay: as above
# Outline: as §1
row,Target,log2 fold change
1,TRAP1 (UniProt Q12931),inactive: -0.011
2,TTI1 (UniProt O43156),inactive: 0.018
3,TRNT1 (UniProt Q96Q11),inactive: 0.02
4,TSEN54 (UniProt Q7Z6J9),inactive: 0.059
5,TSN (UniProt Q15631),inactive: -0.022
6,TRMT2A (UniProt Q8IZ69),inactive: 0.026
7,TTC33 (UniProt Q6PID6),inactive: -0.015
8,TRMU (UniProt O75648),inactive: 0.003
9,TSC22D1 (UniProt Q15714),inactive: -0.014
10,TTC19 (UniProt Q6DKK2),inactive: -0.001
11,TRIM11 (UniProt Q96F44),inactive: -0.009
12,TRIP10 (UniProt Q15642),inactive: -0.02
13,TRIM24 (UniProt O15164),inactive: -0.03
14,TRIM28 (UniProt Q13263),inactive: -0.003
15,TRMT1 (UniProt Q9NXH9),inactive: 0.018
16,TRIM44 (UniProt Q96DX7),inactive: 0.032
17,TRAPPC6A isoform 2 (UniProt O75865),inactive: -0.027

row,Target,log2 fold change
1,TRIP10 isoform 2 (UniProt Q15642),inactive: 0.095
2,TRIM32 (UniProt Q13049),inactive: 0.009
3,TSG101 (UniProt Q99816),inactive: 0.046
4,TSTA3 (UniProt Q13630),inactive: -0.02
5,TRIP6 (UniProt Q15654),inactive: 0.021
6,TTLL12 (UniProt Q14166),inactive: 0.026
7,TRAPPC8 (UniProt Q9Y2L5),inactive: 0.052
8,TRAF4 (UniProt Q9BUZ4),inactive: 0.066
9,TSEN34 (UniProt Q9BSV6),inactive: 0.05
10,TRAPPC3 (UniProt O43617),inactive: 0.045
11,TRIM23 (UniProt P36406),inactive: -0.102
12,TRAPPC9 isoform 2 (UniProt Q96Q05),inactive: 0.055
13,TRUB1 (UniProt Q8WWH5),inactive: 0.014
14,TRIP4 (UniProt Q15650),inactive: -0.022
15,TRAFD1 (UniProt O14545),inactive: 0.048
16,TRAPPC6B (UniProt Q86SZ2),inactive: 0.025

# Compound: CC(C)(O)CC(=O)NCCn1ccc2ncnc(Nc3ccc(Oc4cccc(C(F)(F)F)c4)c(Cl)c3)c21
# Assay: as above
# Outline: as §1
row,Target,log2 fold change
1,TRAP1 (UniProt Q12931),inactive: 0.008
2,TTI1 (UniProt O43156),inactive: -0.049
3,TRNT1 (UniProt Q96Q11),inactive: -0.01
4,TSEN54 (UniProt Q7Z6J9),inactive: -0.036
5,TSN (UniProt Q15631),inactive: -0.008
6,TRMT2A (UniProt Q8IZ69),inactive: -0.005
7,TTC33 (UniProt Q6PID6),inactive: -0.039
8,TRMU (UniProt O75648),inactive: -0.06
9,TSC22D1 (UniProt Q15714),inactive: 0.001
10,TTC19 (UniProt Q6DKK2),inactive: -0.035
11,TRIM11 (UniProt Q96F44),inactive: -0.049
12,TRIP10 (UniProt Q15642),inactive: 0.025
13,TRIM24 (UniProt O15164),inactive: 0.051
14,TRIM28 (UniProt Q13263),inactive: 0.003
15,TRMT1 (UniProt Q9NXH9),inactive: -0.029
16,TRIM44 (UniProt Q96DX7),inactive: -0.013
17,TRAPPC6A isoform 2 (UniProt O75865),inactive: -0.037

row,Target,log2 fold change
1,TRIP10 isoform 2 (UniProt Q15642),inactive: -0.059
2,TRIM32 (UniProt Q13049),inactive: -0.094
3,TSG101 (UniProt Q99816),inactive: 0.057
4,TSTA3 (UniProt Q13630),inactive: -0.03
5,TRIP6 (UniProt Q15654),inactive: -0.006
6,TTLL12 (UniProt Q14166),inactive: 0.005
7,TRAPPC8 (UniProt Q9Y2L5),inactive: 0.039
8,TRAF4 (UniProt Q9BUZ4),inactive: -0.074
9,TSEN34 (UniProt Q9BSV6),inactive: -0.019
10,TRAPPC3 (UniProt O43617),inactive: 0.075
11,TRIM23 (UniProt P36406),inactive: -0.085
12,TRAPPC9 isoform 2 (UniProt Q96Q05),inactive: -0.025
13,TRUB1 (UniProt Q8WWH5),inactive: -0.006
14,TRIP4 (UniProt Q15650),inactive: -0.019
15,TRAFD1 (UniProt O14545),inactive: 0.004
16,TRAPPC6B (UniProt Q86SZ2),inactive: -0.01

# Reference: the supplement of paper PMC10849652
